Laboratory results reported in patent US20220265873 (published 2022).

Assay: peptide synthesis
Details: whole synthesis, 280 nm

N^α-{4-azido-3,3-dimethyl-1-[(N,N-dimethyl)amino-sulfonyl]-2-butyloxycarbonyl}-[Gln^28]exenatide
final HPLC purity: 90.0%
